Test results from patent US10478436B2, “Application of 5-HT6 receptor antagonists for the alleviation of cognitive deficits of down syndrome” (The University of Utah Research Foundation, priority 2011, dated 2019).
Some results were stated once for a whole list of compounds, not compound by compound.

Tested on: Ts65Dn mice
Assay: Exploratory paradigm: ability to recognize a novel object in a novel location (discrimination ratio), Ts65Dn Down syndrome mice
Type: in vivo, mouse
Conditions: 3.0 mg/kg (compound 1) or 10 mg/kg i.p.
Experimental: […] Animals were kept on a 12 hour light/dark cycle and experimentation was conducted during the light portion of the cycle. Animals had unlimited access to food and water. All animals used were housed individually to limit the interference of social interaction on cognitive test performance. Animal care and experimental testing procedures conformed to NIH, IACUC, and AALAC standards and protocols.
Ts65Dn are compared to their control littermates for the effects of excipients and compounds in altering the performance and rescue of deficits in the Ts65Dn DS mouse model.
The apparatus for these experiments consisted of a 40 cm×40 cm Plexiglas box with clear walls and a dark grey floor. The box was placed on a circular white table 1 m in diameter. Four distinct, approximately 20 cm×20 cm black and white shapes were placed 30 cm away from the midpoint of each side of the box. Objects were made from various washable, non-porous materials (plastic, metal, glass, etc.), 2-7 cm in height and varied in color, pattern and texture. To prevent odor cues, all apparatus and objects were disinfected and deodorized with HDQ after each use.
The experimental paradigms utilized the inherent tendency of rodents to differentially explore novel stimuli over familiar stimuli. Exploration was defined as any investigative behavior where mice have active and direct contact with an object. Such behaviors included head orientation and sniffing within <1.0 cm of the object, pawing, biting, or crawling over the objects. Exploration was recorded with an overhead video camera and the duration of exploration was measured with a stopwatch. The week prior to testing, all animals were handled in daily sessions and given an opportunity to habituate to the clear or red apparatus. Each experimental session presented the animal with new object sets and tests were separated by a minimum 48 hour interval. It should be noted that order effects are not normally observed in exploration tasks. Each test consisted of a Habituation Phase, during which mice display reduced exploration over time as a function of habituation, and a Test Phase on novelty detection that is interpreted to reflect recognition memory.
For each of the 7 compounds 1-7, the compound was administered to Ts65Dn mice via i.p. injection at a concentration of 3.0 mg/kg (compound 1) or 10 mg/kg (compounds 2, 3, 4, 5, 6, and 7) body weight delivered in a vehicle of methyl cellulose+0.2% tween 80 solution, while additional Ts65Dn mice were administered with vehicle alone. Each animal received a volume (ml) of drug in vehicle equal to 1% of its body weight (g) or an equal volume of vehicle alone. […]
The duration of exploration of the Novel and Familiar stimuli during the Test Phase was individually measured with stopwatches, rounding to the 0.5 second. […]

Structure (SMILES)	rescue of cognition of Ts65Dn mice (summary)	rescue of cognition of Ts65Dn mice (summary) (listed as Compound 1)	rescue of cognition of Ts65Dn mice (summary) (listed as Compound 2)
COc1ccc(S(=O)(=O)Nc2cc(Cl)cc(Cl)c2OC)cc1N1CCNCC1 [compound 1, N-(3,5-dichloro-2-methoxyphenyl)-4-methoxy-3-(piperazin-1-yl)benzenesulfonamide]	positive responses	restore the cognition of Ts65Dn mice to nearly that of non-Ts65Dn (control) mice	
COc1ccc2[nH]c(-c3ccccc3)c(CCN(C)C)c2c1 [compound 2, 2-(5-methoxy-2-phenyl-1H-indol-3-yl)-N,N-dimethylethanamine]	positive responses		restore the cognition of Ts65Dn mice to nearly that of non-Ts65Dn (control) mice
